PubChem BioAssay AID504791 | Drosophila RNAi Screening Center – 2011

Test: 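Genes whose knock-down strengthens or weakens small-RNA reporter silencing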 (primary screen)
Cells: Drosophila S2-derived reporter cells
Knock-down reagent: long dsRNA against Drosophila genes, about 150-250 ng dsRNA per well (siRNA assay); about 80-120 ng (miRNA assay)
Duration: about 5 days (siRNA assay); about 4 days (miRNA assay)
Treatment: copper sulfate induction of reporters: 25 µM (siRNA assay); 200 mM stated (miRNA assay), 1-2 days before reading
Detection: 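Dual luciferase assay: Renilla to firefly signal ratio in each well, scaled to the mean ratio of its plate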
Units: stable assay Renilla, run 1 in luminescence; stable assay firefly, run 1 in luminescence
Call rule: 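First-pass picks had plate-scaled ratios over 1.5 for the siRNA assay, over 1.6 for the miRNA assay, or under 0.6; two distinct dsRNAs had to score alike on retest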
The deposit covers about 23,000 reagents; this is an unselected part of those that have a named target and a result. Of all reagents, 199 (0.86%) are marked active. 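Plate-scaled ratios behind the calls are not deposited; printed light signals are raw; many rows marked increased or decreased are still called inactive.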 Not given: the direction of the score.

Sps2 [DRSC03441]
- stable assay Renilla, run 1: 6634
- stable assay firefly, run 1: 3.60e5
- Outcome: inactive

CG32085 [DRSC10138]
- stable assay Renilla, run 1: 5710
- stable assay firefly, run 1: 5.45e5
- Outcome: inactive

CG32085 [DRSC10139]
- stable assay Renilla, run 1: 5311
- stable assay firefly, run 1: 4.62e5
- Outcome: inactive

CG32085 [DRSC10576]
- stable assay Renilla, run 1: 7860
- stable assay firefly, run 1: 5.29e5
- Outcome: inactive

zf30C [DRSC03641]
- stable assay Renilla, run 1: 32606
- stable assay firefly, run 1: 1.51e6
- Outcome: inactive

Nadk2 [DRSC07072]
- stable assay Renilla, run 1: 7444
- stable assay firefly, run 1: 3.42e5
- Outcome: inactive

alpha-Est9 [DRSC12621]
- stable assay Renilla, run 1: 8023
- stable assay firefly, run 1: 4.29e5
- Outcome: inactive

Ugt301D1 [DRSC02021]
- stable assay Renilla, run 1: 8484
- stable assay firefly, run 1: 5.11e5
- Outcome: inactive

UQCR-6.4 [DRSC06454]
- stable assay Renilla, run 1: 6298
- stable assay firefly, run 1: 3.93e5
- Outcome: inactive

Rpn2 [DRSC16839]
- stable siRNA reporter change: reporter ratio raised past the hit cutoff
- stable assay Renilla, run 1: 5462
- stable assay firefly, run 1: 1.90e5
- Outcome: active

Oatp74D [DRSC09491]
- stable assay Renilla, run 1: 5731
- stable assay firefly, run 1: 4.36e5
- Outcome: inactive

Oatp74D [DRSC10883]
- stable assay Renilla, run 1: 7866
- stable assay firefly, run 1: 2.94e5
- Outcome: inactive

Called active, of those listed so far:
Rpn2 [DRSC16839]
- stable siRNA reporter change: reporter ratio raised past the hit cutoff
- stable assay Renilla, run 1: 5462
- stable assay firefly, run 1: 1.90e5
- Outcome: active
